Results as given in PubChem BioAssay AID493014 (National Center for Advancing Translational Sciences (NCATS), 2011).
In all, about 340,000 compounds went through this assay and about 170 (0.05%) were called active. The shares of active, inactive and inconclusive entries below differ from those in the screen. Calls come from the whole dose curve; as a rule, active = well fitted inhibition curve with a large enough effect in the signal ratio, with a control signal flat (not every such curve was filed as active); inconclusive = small, poorly fitted or top-dose-only effect, or effect the other way, or a change in a side signal; inactive = flat fitted curve, though single readings scatter; the % refers to the signal ratio. Where the call is inconclusive, the potency comes from a doubtful curve fit.

Experiment: qHTS Assay to Find Inhibitors of Chronic Active B-Cell Receptor Signaling;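 for activity change, negative = inhibition: plate controls were basal doxycycline-induced cells for no effect and cells given 10 µM MG132 for full effect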
Conditions: ABC-DLBCL IkBa-CBG/CBR reporter, luminescence ratio (green luciferase fused to IkBa over red control in TMD8 lymphoma cells), 4 h; activity change, negative = inhibition: at 46.1 µM (top of the series) unless noted
Outline: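 TMD8 ABC-DLBCL cells carrying doxycycline-inducible green luciferase fused to IkappaBalpha plus unfused red luciferase were exposed to compounds (up to 46 uM) for 4 hrs at 37C. Activity came from the overlap-corrected green/red luminescence ratio.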
Potency is the fitted concentration of half-maximal effect.

Row | SMILES | activity change, negative = inhibition | Potency
1 | CC1(C)CC(=O)CC(=O)/C1=N\Nc1c(Cl)cc(Cl)cc1Cl | inconclusive: 11.2% | –
2 | CCOC(=O)CNC(=O)Cn1c(C)cc2ccccc2c1=O | inconclusive: -1.76% | –
3 | CC(=O)N1CCc2cc(S(=O)(=O)NCCC(=O)N3CCc4ccccc4C3)ccc21 | inactive | –
4 | Cc1cc(C)n(-c2nc(C)c(C)c(=O)n2CC(=O)Nc2ccc([N+](=O)[O-])cc2)n1 | inconclusive: 13% | –
5 | Cc1ccc(S(=O)(=O)N/N=C/c2ccccc2O)cc1 | inactive | –
6 | CN(C)CCCNC(=S)NCC(c1ccc(Cl)cc1Cl)c1c[nH]c2ccccc12 (configuration not stated) | inconclusive: 2.98% | –
7 | Cn1nc(CC(=O)NCc2ccc(C(F)(F)F)cc2)c2ccccc2c1=O | inconclusive: 2.16% | –
8 | Cc1ccc(C(C)C)c(OCc2ccc(C(=O)N/N=C/c3ccc(O)cc3O)cc2)c1 | inconclusive: -18.8% | –
9 | COc1ccccc1NC(=O)CSc1nnc(CC(=O)Nc2ccccc2F)n1C | – | inconclusive: 17.8 µM [falling, partial curve, poor fit]
10 | Cc1ccc(-n2cc(-c3ccccc3)c3c(=O)[nH]cnc32)cc1 | inconclusive: -1.3% | –
11 | Cc1ccc2c(c1)c1c(n2CC2COC(C)(C)O2)C(=O)CCC1 (configuration not stated) | inconclusive: 1.74% | –
12 | NC(=O)C1CCCN(C(=O)c2ccc3nc(Cc4cccc(Cl)c4)oc3c2)C1 (configuration not stated) | inconclusive: 0.0609% | –
13 | CCc1cc(=O)[nH]c(SCc2cccc3ccccc23)n1 | inconclusive: -19% | –
14 | CCOc1ccccc1NC(=O)Cc1coc2ccc(C)cc12 | inactive | –
15 | COc1ccc(CCNC(=O)c2ccc(Cl)cc2)cc1 | inactive | –
16 | O=C(NNC(=O)c1cc(Br)c(Br)s1)c1ccncc1 | – | inconclusive: 20.6 µM [falling, partial curve]
17 | CC(=O)OC[C@H]1O[C@@H](Sc2cccc3cccnc23)[C@H](OC(C)=O)[C@@H](OC(C)=O)[C@H]1OC(C)=O | inconclusive: -17.6% | –
18 | C/C(=N\N=C(/N)SC1CC(=O)N(c2cccc(Cl)c2)C1=O)c1cccs1 (configuration not stated) | – | inconclusive: 35.5 µM [rising, single point]
19 | Brc1ccc(N/N=C(/N=Nc2nn[nH]n2)c2ccccc2)cc1 | inconclusive: 22.2% | –
20 | CSc1cccc(NC(=O)c2cccc3cccnc23)c1 | inconclusive: -3.06% | –
21 | COc1ccc(NC(=O)c2cc3ccccc3o2)c(OC)c1 | – | inconclusive: 35.5 µM [rising, single point]

Row | SMILES | activity change, negative = inhibition | Potency
22 | Cc1ccc(NS(=O)(=O)c2ccc(NC(=O)C3CC3)cc2)c(C)c1 | inconclusive: -16.3% | –
23 | Cc1cccc(NC(=O)c2cc(NC(=O)CCCC(=O)O)ccc2Cl)n1 | – | inconclusive: 29.1 µM [falling, single point]
24 | Cn1ccnc1SCC(=O)Nc1cccc(O)c1 | inconclusive: 21% | –
25 | NC(=O)CC(c1ccccc1)c1ccc2c(c1)OCO2 (configuration not stated) | inactive | –
26 | CCN(CCO)C(=S)Nc1cc(C(=O)OC)ccc1C(=O)OC | inconclusive: -3.49% | –
27 | Cc1ccc(C2(C)NC(=O)N(CC(=O)NNC(=O)c3ccccc3F)C2=O)cc1 (configuration not stated) | inconclusive: 0.295% | –
28 | CC/C(=C\c1oc2cc3ccccc3cc2[n+]1CC)Nc1ccccc1 | inconclusive: 5.26% | –
29 | COc1cc([N+](=O)[O-])c(OC)cc1SCc1n[nH]c(=S)n1-c1ccc(C)cc1 | inconclusive: -2.49% | –
30 | O=C(N/N=C/c1ccc(F)cc1)c1ccc(Br)cc1 | – | inconclusive: 35.5 µM [falling, single point]
31 | CCC(=O)c1ccc(N2CCCC2)c(F)c1 | inconclusive: 12.9% | –
32 | COc1cc(Cl)c(C)cc1NC(=O)CC1CCCC1 | inconclusive: 18% | –
33 | COc1cccc(/C=C/C(=O)OCC(=O)Nc2nnc(-c3ccccc3)o2)c1 | inconclusive: 8.99% | –
34 | O=C1CC/C=C\C[C@@H](CC(=O)N(CCO)Cc2ccccc2)C(=O)N2CCC[C@H]2CO1 | inactive | –
35 | CCOC(=O)c1sc(NC(=O)CN2C(=O)NC3(CC(C)CC(C)(C)C3)C2=O)cc1C (configuration not stated) | inconclusive: -7.83% | –
36 | CN1CCN(c2ccc(Nc3ccnc4cc(Cl)ccc34)cc2)CC1 | inconclusive: -6.04% | –
37 | CCOc1cc(/C=C(/C#N)c2ccc(F)cc2)ccc1OCc1ccc(C(=O)O)o1 | inconclusive: -2.15% | –
38 | CCc1cc(SC#N)cc(CC)c1NC(=O)CCl | – | inconclusive: 4.11 µM [cytotoxic, single point]
39 | C/C(=N/NC(=O)c1cc(C)[nH]n1)c1ccncc1 | – | inconclusive: 35.5 µM [falling, single point]
40 | CCN(CC(=O)Nc1cc(Cl)ccc1OC)CC(=O)NC1CCS(=O)(=O)C1 (configuration not stated) | inactive | –
41 | COc1ccc(CNC(=O)COC(=O)CN2C(=O)C3CC=CCC3C2=O)cc1 (configuration not stated) | inconclusive: 5.38% | –
42 | COc1ccc(NS(=O)(=O)c2ccc3nc(COc4cccc5ccccc45)[nH]c3c2)cc1 | inconclusive: -14.5% | –

Grouped by structure, the entries above with a nitro group on carbon.
Row | SMILES | activity change, negative = inhibition | Potency
4 | Cc1cc(C)n(-c2nc(C)c(C)c(=O)n2CC(=O)Nc2ccc([N+](=O)[O-])cc2)n1 | inconclusive: 13% | –
29 | COc1cc([N+](=O)[O-])c(OC)cc1SCc1n[nH]c(=S)n1-c1ccc(C)cc1 | inconclusive: -2.49% | –

Later entries.

Row | SMILES | activity change, negative = inhibition | Potency
43 | CNC(=S)N/N=C/c1cc(Br)cc(Br)c1O | inconclusive: 8.86% | –
44 | CCOC(=O)C1CCN(C(=O)Cc2cccs2)CC1 | inconclusive: 13.8% | –
45 | CCOc1ccc(NC(=O)Nc2cc(C)ccc2OC)cc1 | inconclusive: -0.624% | –
46 | Cc1nc(-c2cccc(S(=O)(=O)N3CC(C)CC(C)C3)c2)cs1 (configuration not stated) | inactive | –
47 | Cc1nc(N2CCN(c3ccccc3)CC2)nc2c1C(=O)CC(c1ccccc1)C2 (configuration not stated) | inconclusive: 2.55% | –
48 | N#CC1=C(N)Oc2n[nH]c(-c3cccnc3)c2C1c1cc(F)ccc1F (configuration not stated) | – | inconclusive: 35.5 µM [falling, single point]
49 | COc1ccc(CCNC(=O)C(=O)NCC(c2ccco2)S(=O)(=O)c2ccc(C)cc2)cc1 (configuration not stated) | – | inconclusive: 10 µM [falling, partial curve]
50 | CCOc1ccccc1/C=C(/NC(=O)c1ccccc1)C(=O)N(CC)CC | inactive | –
51 | Cc1c(Cl)cccc1NC(=S)N(CCCN1CCOCC1)Cc1cccs1 | inactive | –
52 | O=C(NCC(c1ccco1)N1CCOCC1)c1ccc(F)cc1 (configuration not stated) | inconclusive: -18.2% | –
53 | Cc1cccc(C)c1OCCOC(=O)c1n[nH]c2ccccc12 | inconclusive: 5.79% | –
54 | O=C(Nc1cccc(S(=O)(=O)N2CCCC2)c1)c1ccc2c(c1)OCO2 | inconclusive: 0.257% | –
55 | O=C(Nc1ccccc1)c1ncoc1-c1ccc(Cl)cc1 | inactive | –
56 | CCCC(=O)Nc1cc(-c2nn(C)c(=O)c3ccccc23)ccc1N1CCOCC1 | inconclusive: 8.14% | –
57 | CC(=O)c1[nH]c(C)c(C(C)=O)c1C | – | inconclusive: 14.1 µM [falling, single point]
58 | O=C(COC(=O)CCc1ccccc1)Nc1cc([N+](=O)[O-])ccc1F | inconclusive: -27.1% | –
59 | Cn1nc([N+](=O)[O-])nc1Sc1nnnn1-c1cccc(C(=O)O)c1 | inconclusive: 8.9% | –
60 | O=C(NC(=S)Nc1cccc(Cl)c1Cl)C1CC1 | inconclusive: -15.2% | –
61 | CCN(CC(=O)NCc1cccs1)c1ccc(S(=O)(=O)N2CCN(C)CC2)cn1 | inactive | –
62 | CCOC(=O)c1c(NC(=O)C2=C(C)NC(=S)NC2c2ccc(C)cc2)sc(C)c1C (configuration not stated) | inactive | –
63 | Cc1ccc2[nH]c(=O)c3cc(C(=O)N4CCN(C(=O)c5ccco5)CC4)sc3c2c1 | inconclusive: -25.4% | –

Another view of some results above:
CN(C)CCCNC(=S)NCC(c1ccc(Cl)cc1Cl)c1c[nH]c2ccccc12 (configuration not stated)
  activity change, negative = inhibition: inconclusive: 2.98%
O=C1CC/C=C\C[C@@H](CC(=O)N(CCO)Cc2ccccc2)C(=O)N2CCC[C@H]2CO1
  activity change, negative = inhibition: inactive
COc1ccc(NS(=O)(=O)c2ccc3nc(COc4cccc5ccccc45)[nH]c3c2)cc1
  activity change, negative = inhibition: inconclusive: -14.5%
Cc1cccc(C)c1OCCOC(=O)c1n[nH]c2ccccc12
  activity change, negative = inhibition: inconclusive: 5.79%

(list continues)

Row | SMILES | activity change, negative = inhibition | Potency
64 | C(=N\NC1=Nc2cccc3cccc1c23)/c1ccccn1 | – | inconclusive: 3.55 µM [cytotoxic, full curve, poor fit]
65 | CCC(=O)Nc1cccc(NC(=S)NC(=O)c2ccc(Cl)cc2)c1 | – | inconclusive: 6.51 µM [falling, single point]
66 | COc1ccc(C2=CC(c3cc(Br)ccc3F)n3c(nc4ccccc43)N2)cc1 (configuration not stated) | – | inconclusive: 5.62 µM [falling, partial curve]
67 | O=C(Nc1ccc(N2CCCCC2)cc1)c1ccccn1 | – | inconclusive: 5.62 µM [rising, single point]
68 | CCC1CCCCN1C(=O)Nc1cccc(NC(=O)N2CCCCC2CC)c1 (configuration not stated) | – | inconclusive: 11.6 µM [falling, partial curve, poor fit]
69 | COc1ccc(-c2cc(C(=O)NCc3cn(C)nc3C)c3ccccc3n2)cc1OC | inconclusive: 3.44% | –
70 | Nc1ccc2c(c1)Oc1ccccc1C=C2 | – | inconclusive: 20 µM [falling, single point]
71 | Cc1ccc2nc(SCC3CCCCO3)[nH]c2c1 (configuration not stated) | inconclusive: -0.914% | –
72 | O=C(CN1CCCCC1)Nc1ccccc1-c1ccccc1 | – | inconclusive: 6.51 µM [rising, single point]
73 | O=C(/C=C/c1ccccc1)NCC1(c2ccccc2)CCOCC1 | inconclusive: 8.86% | –
74 | Cc1cc(NC(=O)CSc2nc3ccccc3[nH]2)no1 | inconclusive: 4.41% | –
75 | COc1cc(NC(=O)/C=C/c2ccccc2[N+](=O)[O-])cc(OC)c1 | inconclusive: -17.3% | –
76 | COc1cc(Nc2nc(SCc3ccc(Cl)cc3)nc3ccccc23)cc(OC)c1 | – | inconclusive: 20 µM [rising, partial curve, poor fit]
77 | Cn1cc(CN2CCN(Cc3ccccc3)C(CCO)C2)c(-c2ccccc2)n1 (configuration not stated) | – | inconclusive: 35.5 µM [falling, single point]
78 | Cc1ccc(S(=O)(=O)N2CCN(c3ncnc4sccc34)CC2)cc1 | inactive | –
79 | O=C(CSc1cn(CCNC(=O)c2ccccc2)c2ccccc12)NCc1ccco1 | inconclusive: 8.35% | –
80 | CCCCOC(=O)c1cc(=O)[nH]c2ccccc12 | inconclusive: -27.9% | –
81 | C/C(Cl)=C\Cn1c(O)c(N=NC(N)=S)c2ccccc21 | – | inconclusive: 11.2 µM [falling, partial curve, poor fit]
82 | COc1ccc2ccccc2c1CN1CCN(C(=O)c2ccco2)CC1 | inconclusive: 8.87% | –
